Measured values: the supplement of paper PMC10849652
This is one part of the list.

Amino acid sequences for entries named in this document (tags omitted). A change or cut given only in a name is not applied to a line headed by its entry.
UniProt Q15274: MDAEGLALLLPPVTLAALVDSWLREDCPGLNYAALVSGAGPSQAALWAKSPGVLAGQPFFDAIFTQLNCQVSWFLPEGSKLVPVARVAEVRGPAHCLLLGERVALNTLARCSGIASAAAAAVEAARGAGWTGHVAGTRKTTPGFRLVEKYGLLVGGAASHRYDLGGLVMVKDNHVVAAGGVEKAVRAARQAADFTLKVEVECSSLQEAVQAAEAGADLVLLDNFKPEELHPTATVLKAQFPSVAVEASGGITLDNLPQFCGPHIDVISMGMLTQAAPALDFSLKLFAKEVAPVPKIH
UniProt O60671: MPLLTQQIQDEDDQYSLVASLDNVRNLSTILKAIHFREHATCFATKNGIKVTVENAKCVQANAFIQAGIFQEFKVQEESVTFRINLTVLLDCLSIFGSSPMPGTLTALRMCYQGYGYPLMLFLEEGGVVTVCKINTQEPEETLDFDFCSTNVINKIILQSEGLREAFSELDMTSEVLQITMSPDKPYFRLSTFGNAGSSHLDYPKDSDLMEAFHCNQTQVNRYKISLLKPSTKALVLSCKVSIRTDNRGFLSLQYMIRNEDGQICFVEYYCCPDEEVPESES
UniProt Q5HYI8: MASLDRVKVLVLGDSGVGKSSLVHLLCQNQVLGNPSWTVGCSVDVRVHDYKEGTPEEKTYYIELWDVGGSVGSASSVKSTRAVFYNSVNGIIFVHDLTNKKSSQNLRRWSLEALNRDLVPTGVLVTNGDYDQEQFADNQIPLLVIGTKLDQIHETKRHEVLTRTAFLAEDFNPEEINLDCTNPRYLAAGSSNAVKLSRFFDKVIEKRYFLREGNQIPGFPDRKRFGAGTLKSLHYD
UniProt Q9H974: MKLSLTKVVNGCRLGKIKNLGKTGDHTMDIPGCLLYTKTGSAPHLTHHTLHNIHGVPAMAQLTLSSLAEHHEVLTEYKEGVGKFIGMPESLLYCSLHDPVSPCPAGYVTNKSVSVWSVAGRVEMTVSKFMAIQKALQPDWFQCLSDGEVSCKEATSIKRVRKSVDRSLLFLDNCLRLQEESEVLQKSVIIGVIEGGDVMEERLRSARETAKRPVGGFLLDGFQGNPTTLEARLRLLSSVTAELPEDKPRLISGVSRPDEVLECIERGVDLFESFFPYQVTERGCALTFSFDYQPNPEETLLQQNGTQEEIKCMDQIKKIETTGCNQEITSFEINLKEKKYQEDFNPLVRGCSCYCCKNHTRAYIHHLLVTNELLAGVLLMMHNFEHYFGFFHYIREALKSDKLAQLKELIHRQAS
UniProt Q15311: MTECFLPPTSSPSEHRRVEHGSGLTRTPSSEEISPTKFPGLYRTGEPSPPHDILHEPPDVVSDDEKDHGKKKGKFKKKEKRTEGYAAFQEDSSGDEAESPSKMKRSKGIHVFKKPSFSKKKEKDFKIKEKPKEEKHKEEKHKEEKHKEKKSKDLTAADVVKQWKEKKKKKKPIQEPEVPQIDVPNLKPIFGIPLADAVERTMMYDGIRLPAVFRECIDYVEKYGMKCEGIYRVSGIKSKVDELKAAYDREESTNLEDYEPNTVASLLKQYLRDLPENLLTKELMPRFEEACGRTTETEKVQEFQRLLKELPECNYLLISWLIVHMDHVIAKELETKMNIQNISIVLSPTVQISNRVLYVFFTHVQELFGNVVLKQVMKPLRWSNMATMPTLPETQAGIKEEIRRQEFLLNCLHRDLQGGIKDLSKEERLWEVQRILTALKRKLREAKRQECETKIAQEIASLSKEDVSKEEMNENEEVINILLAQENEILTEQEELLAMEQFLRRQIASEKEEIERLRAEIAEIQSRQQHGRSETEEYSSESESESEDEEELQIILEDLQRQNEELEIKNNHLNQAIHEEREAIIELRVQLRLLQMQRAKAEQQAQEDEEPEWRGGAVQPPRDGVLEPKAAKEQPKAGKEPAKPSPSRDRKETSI
UniProt Q9Y4B4: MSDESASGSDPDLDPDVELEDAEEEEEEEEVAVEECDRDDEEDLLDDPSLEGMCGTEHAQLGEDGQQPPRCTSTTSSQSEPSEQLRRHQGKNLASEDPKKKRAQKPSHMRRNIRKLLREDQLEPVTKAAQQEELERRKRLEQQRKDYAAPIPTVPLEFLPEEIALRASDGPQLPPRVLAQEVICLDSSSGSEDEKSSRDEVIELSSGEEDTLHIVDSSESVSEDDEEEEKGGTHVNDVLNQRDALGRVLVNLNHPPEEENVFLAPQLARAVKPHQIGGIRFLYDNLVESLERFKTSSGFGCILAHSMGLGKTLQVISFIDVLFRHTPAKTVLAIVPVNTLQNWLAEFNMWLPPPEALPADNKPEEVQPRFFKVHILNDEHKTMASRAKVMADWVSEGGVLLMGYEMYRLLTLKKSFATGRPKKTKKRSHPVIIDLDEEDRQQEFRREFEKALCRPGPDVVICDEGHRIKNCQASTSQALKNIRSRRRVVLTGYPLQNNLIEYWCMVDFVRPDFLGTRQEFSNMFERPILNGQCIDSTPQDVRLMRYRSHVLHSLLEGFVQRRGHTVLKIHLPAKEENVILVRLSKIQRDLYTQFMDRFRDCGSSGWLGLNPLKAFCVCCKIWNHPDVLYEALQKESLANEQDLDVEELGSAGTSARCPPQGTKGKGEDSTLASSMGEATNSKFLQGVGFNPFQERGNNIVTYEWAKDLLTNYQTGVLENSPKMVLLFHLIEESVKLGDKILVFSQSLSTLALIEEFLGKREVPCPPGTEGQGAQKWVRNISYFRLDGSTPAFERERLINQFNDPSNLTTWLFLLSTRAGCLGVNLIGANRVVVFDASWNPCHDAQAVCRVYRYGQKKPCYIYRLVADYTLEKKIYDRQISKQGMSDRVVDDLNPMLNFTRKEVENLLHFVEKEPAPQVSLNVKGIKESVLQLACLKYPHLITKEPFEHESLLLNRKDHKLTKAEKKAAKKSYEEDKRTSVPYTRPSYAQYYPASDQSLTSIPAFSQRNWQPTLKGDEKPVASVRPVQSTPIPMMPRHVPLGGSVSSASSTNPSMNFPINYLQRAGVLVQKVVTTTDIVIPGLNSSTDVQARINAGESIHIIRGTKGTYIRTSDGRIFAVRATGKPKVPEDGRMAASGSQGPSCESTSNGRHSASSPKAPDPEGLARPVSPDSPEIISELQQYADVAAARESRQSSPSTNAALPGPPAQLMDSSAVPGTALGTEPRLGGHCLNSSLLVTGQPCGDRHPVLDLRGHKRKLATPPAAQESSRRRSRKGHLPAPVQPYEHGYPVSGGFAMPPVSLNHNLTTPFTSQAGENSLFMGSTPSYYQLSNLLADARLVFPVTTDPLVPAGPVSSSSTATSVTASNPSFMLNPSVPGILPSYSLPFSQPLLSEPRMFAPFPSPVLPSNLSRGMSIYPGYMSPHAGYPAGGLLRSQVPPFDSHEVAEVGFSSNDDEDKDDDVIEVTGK
UniProt P47897: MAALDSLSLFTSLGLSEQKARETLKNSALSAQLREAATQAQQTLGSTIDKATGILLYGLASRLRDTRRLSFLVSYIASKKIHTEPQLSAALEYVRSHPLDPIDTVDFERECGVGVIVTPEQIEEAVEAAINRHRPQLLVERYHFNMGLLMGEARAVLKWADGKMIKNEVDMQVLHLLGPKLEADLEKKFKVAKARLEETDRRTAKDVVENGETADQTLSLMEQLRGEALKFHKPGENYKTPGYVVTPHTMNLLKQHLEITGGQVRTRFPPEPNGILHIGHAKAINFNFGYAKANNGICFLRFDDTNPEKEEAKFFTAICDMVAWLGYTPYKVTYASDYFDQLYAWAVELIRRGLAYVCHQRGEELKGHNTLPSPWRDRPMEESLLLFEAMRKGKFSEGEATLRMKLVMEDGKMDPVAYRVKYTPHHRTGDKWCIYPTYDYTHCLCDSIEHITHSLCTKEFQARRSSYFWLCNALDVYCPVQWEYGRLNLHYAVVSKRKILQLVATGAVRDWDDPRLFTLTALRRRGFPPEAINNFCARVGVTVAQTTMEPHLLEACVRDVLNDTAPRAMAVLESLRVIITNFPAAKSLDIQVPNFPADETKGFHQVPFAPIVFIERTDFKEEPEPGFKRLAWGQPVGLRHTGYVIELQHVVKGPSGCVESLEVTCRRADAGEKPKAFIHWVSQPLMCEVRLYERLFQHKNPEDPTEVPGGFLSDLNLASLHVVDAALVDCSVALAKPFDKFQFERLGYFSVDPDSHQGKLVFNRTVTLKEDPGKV
UniProt O43502: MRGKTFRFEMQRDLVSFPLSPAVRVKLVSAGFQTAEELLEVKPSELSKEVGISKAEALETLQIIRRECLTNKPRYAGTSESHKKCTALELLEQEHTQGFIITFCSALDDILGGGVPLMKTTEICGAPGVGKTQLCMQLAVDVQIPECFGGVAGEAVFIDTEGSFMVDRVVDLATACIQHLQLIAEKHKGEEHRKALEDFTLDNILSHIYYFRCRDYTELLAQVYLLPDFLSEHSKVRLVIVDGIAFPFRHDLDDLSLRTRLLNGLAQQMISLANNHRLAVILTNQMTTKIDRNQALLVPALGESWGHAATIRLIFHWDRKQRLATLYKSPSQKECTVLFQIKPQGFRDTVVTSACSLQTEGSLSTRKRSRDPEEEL
UniProt P53611: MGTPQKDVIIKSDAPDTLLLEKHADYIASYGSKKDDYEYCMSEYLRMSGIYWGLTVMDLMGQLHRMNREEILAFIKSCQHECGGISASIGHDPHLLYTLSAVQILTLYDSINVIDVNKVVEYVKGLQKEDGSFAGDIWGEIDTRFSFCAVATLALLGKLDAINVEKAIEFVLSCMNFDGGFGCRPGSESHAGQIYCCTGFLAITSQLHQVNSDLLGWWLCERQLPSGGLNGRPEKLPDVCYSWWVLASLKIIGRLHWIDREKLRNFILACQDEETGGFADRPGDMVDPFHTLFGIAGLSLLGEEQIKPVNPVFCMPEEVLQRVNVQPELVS
UniProt P20336: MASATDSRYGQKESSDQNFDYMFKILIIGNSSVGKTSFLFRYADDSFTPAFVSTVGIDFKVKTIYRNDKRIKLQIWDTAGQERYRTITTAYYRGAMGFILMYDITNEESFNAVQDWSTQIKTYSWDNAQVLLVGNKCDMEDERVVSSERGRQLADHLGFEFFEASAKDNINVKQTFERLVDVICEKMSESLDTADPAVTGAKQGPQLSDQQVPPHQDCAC
UniProt Q9P0K7: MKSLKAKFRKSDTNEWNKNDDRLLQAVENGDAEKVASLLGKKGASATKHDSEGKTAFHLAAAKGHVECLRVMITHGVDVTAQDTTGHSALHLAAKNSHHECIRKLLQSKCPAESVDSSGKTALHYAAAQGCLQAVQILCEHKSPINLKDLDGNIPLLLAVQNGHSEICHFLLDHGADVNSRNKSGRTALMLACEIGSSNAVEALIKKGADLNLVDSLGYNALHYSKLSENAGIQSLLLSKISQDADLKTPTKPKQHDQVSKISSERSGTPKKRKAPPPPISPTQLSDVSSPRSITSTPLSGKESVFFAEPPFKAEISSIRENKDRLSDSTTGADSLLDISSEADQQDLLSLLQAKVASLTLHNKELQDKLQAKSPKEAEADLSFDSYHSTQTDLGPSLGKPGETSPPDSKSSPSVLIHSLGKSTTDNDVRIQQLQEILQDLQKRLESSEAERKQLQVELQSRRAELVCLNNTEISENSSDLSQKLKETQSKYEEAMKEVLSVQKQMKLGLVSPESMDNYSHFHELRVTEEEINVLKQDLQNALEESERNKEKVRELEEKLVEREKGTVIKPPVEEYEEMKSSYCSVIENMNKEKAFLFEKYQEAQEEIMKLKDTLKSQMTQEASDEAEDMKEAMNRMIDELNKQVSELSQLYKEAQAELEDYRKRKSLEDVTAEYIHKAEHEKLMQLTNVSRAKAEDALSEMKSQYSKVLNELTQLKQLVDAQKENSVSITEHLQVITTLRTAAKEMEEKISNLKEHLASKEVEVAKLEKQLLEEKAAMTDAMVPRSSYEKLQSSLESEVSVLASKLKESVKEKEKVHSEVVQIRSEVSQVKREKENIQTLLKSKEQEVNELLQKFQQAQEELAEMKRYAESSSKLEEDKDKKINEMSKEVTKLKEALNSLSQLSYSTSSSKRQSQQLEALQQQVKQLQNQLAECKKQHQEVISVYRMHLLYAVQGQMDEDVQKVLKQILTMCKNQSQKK
UniProt P51151: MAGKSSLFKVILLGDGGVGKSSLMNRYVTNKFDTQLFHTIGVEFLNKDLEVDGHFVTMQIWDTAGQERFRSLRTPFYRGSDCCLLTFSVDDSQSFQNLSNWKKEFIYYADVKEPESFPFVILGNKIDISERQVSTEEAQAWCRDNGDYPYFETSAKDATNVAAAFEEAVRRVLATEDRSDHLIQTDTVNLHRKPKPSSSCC
UniProt Q6IQ22: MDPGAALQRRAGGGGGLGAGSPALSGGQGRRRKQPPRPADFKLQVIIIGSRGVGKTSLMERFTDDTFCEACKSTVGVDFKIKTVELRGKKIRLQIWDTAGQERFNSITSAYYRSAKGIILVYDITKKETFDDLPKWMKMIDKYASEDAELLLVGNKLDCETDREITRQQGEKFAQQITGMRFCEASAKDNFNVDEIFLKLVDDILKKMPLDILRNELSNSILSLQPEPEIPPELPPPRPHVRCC

Key:
Test in all cases: log2 fold change, soluble protein after heating vs DMSO (PISA); higher = thermal stabilisation; K562 lysate, 10 uM; active = over 0.2 and 3.5 SD of the protein, either way, in both replicates (recomputed)
[1] = compound: C1=CC=C(C=C1)[C@H](COC2=CC3=C(C=C2)NC(=O)N3)NC(=O)C4=CC=CN(C4=O)CC5=CC(=C(C=C5)F)F
Outline: (§1)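 K562 pellets were dounce-homogenised in PBS pH 7.4 containing 1 mM MgCl2, and the crude extract, at 1 mg/mL protein, was exposed to 10 μM compound for 30 min. Aliquots were heated for 3 min across 48°C-58°C, pooled, brought to 0.5% NP-40 at 4°C and spun at 21,000xg for 90 min, with the supernatant taken as soluble protein. TMTpro 16plex LC-MS/MS with equalised channel sums quantified that protein. Values are log-two fold changes in thermal stability relative to solvent controls, taken from duplicates.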

[2] = compound: CC1=C(SC2=C1C(=N[C@H](C3=NN=C(N32)C)CC(=O)N)C4=CC=C(C=C4)Cl)C
Outline: as §1

[3] = compound: CC1=C2C(=CC=C1)N=C(N(C2=O)C3=CC=CC=C3C)CN4C=NC5=C(N=CN=C54)N
Outline: as §1

[4] = compound: Cc1sc2c(c1C)C(c1ccc(Cl)cc1)=N[C@@H](CC(=O)OC(C)(C)C)c1nnc(C)n1-2
Outline: as §1

[5] = compound: c1ccc([C@@H]2C[C@H]2NC2CCNCC2)cc1
Outline: as §1

Measured: log2 fold change

QPRT (UniProt Q15274)
inactive: [1] -0.059 | [2] -0.001 | [3] 0.036 | [4] -0.017 | [5] -0.071

RAB8A (UniProt P61006)
inactive: [1] -0.024 | [2] -0.005 | [3] 0.003 | [4] 0.026 | [5] 0.016

RAD1 (UniProt O60671)
inactive: [1] 0.026 | [2] 0.004 | [3] -0.006 | [4] 0.005 | [5] -0.027

RABL3 (UniProt Q5HYI8)
inactive: [1] -0.044 | [2] -0.021 | [3] 0.004 | [4] 0.017 | [5] 0.03

RAN (UniProt P62826)
inactive: [1] 0.008 | [2] 0.005 | [3] -0.039 | [4] -0.007 | [5] 0.039

RABIF (UniProt P47224)
inactive: [1] -0.013 | [2] -0.01 | [3] 0.021 | [4] -0.035 | [5] -0.03

QTRT2 isoform 4 (UniProt Q9H974)
inactive: [1] -0.004 | [2] 0.014 | [3] -0.03 | [4] -0.019 | [5] -0.157

RALBP1 (UniProt Q15311)
inactive: [1] -0.032 | [2] 0.012 | [3] 0.047 | [4] -0.051 | [5] -0.023

Copied from the results shown (two entries):
RAD1 (UniProt O60671)
inactive: [1] 0.026 | [2] 0.004 | [3] -0.006 | [4] 0.005 | [5] -0.027

RABL3 (UniProt Q5HYI8)
inactive: [1] -0.044 | [2] -0.021 | [3] 0.004 | [4] 0.017 | [5] 0.03

Going on with the list.

RAB3GAP2 (UniProt Q9H2M9)
inactive: [1] 0.015 | [2] -0.002 | [3] 0.032 | [4] 0.041 | [5] 0.026

RAC2 (UniProt P15153)
inactive: [1] -0.116 | [2] 0.043 | [3] -0.032 | [4] 0.067 | [5] 0.028

RAD54L2 (UniProt Q9Y4B4)
inactive: [1] 0.139 | [2] 0.144 | [3] 0.029 | [4] -0.131 | [5] 0.147

RAB6B (UniProt Q9NRW1)
inactive: [1] 0.027 | [2] -0.018 | [3] -0.033 | [4] 0.014 | [5] 0.023

RANBP10 (UniProt Q6VN20)
inactive: [1] 0.056 | [2] 0.028 | [3] 0.044 | [4] 0.05 | [5] 0.011

RAD50 isoform 2 (UniProt Q92878)
inactive: [1] -0.002 | [2] -0.031 | [3] 0.004 | [4] 0.008 | [5] 0.009

QARS (UniProt P47897)
inactive: [1] -0.029 | [2] 0.034 | [3] 0.012 | [4] 0.067 | [5] 0.058

RAD51C (UniProt O43502)
inactive: [1] -0.028 | [2] 0.026 | [3] 0.078 | [4] -0.029 | [5] -0.004

RABGGTB (UniProt P53611)
inactive: [1] -0.102 | [2] -0.01 | [3] 0.005 | [4] -0.048 | [5] -0.017

RABEP1 (UniProt Q15276)
inactive: [1] 0.023 | [2] 0.012 | [3] 0.033 | [4] -0.029 | [5] -0.037

RAB3A (UniProt P20336)
inactive: [1] -0.028 | [2] -0.019 | [3] 0.075 | [4] 0.095 | [5] 0.013

RAI14 isoform 2 (UniProt Q9P0K7)
inactive: [1] 0.002 | [2] -0.052 | [3] -0.02 | [4] -0.041 | [5] -0.033

RANBP2 (UniProt P49792)
inactive: [1] -0.019 | [2] -0.009 | [3] 0.002 | [4] 0.003 | [5] 0.02

RAB4A (UniProt P20338)
inactive: [1] 0.008 | [2] -0.018 | [3] -0.013 | [4] 0.054 | [5] 0.027

RAB9A (UniProt P51151)
inactive: [1] 0.014 | [2] 0.037 | [3] 0.041 | [4] 0.028 | [5] 0.065

RAB12 (UniProt Q6IQ22)
inactive: [1] 0.021 | [2] 0.021 | [3] 0.005 | [4] -0.013 | [5] -0.013
